Publication PMC11372060, “Two KaiABC systems control circadian oscillations in one cyanobacterium” (Nature Communications, 2024)
These are yes or no findings as the source states them, for the method shown. Some binding calls cover weakened binding; strength is not graded here. Where a sequence is shown, tags or fusion partners need not be part of it.

Target: KaiA1 (Slr0756), yeast two-hybrid fusion (Synechocystis sp. PCC 6803) (UniProt P74644)
Assay: two-hybrid; AH109 yeast; GAL4 AD and BD fusions; growth on CSM -Leu -Trp -His with 12.5 mM 3-amino-1,2,4-triazole, 6 days at 30 °C

binding: binds
B1: KaiA1 (Slr0756), yeast two-hybrid fusion (protein, UniProt P74644 1-299)
chain: MQSPLSLCLFAPEHVAHRLRSIFQGDRHYLSTFQALDDFCAFLEDKPERIDCLLVYYEANSLPVLNRLYEQGRLLPIILLEPSPSALAKTTDEHPTIVYHNAEIHLPESQWSELPTVVDRAIAHYLHLGPICTLPNQTETIPAPIVDESSQSFLLLQQRRLADKLKERLGYLGVYYKRKPSHFYRNFSPQEKQEYLEDLSSQYREIILSYFSDEGTVNDLLDQFVNQAFFADLAISQILEIHMELMDEFSQHLKLEGRSEEVLLDYRLVLIDILAHLGEMYRRSIPREDIPFDVYYQTD
